# Some of the results follow.
# By UniProt entry, the sequences of proteins in these tests, tags left out. Where a name states a change or a piece, a line headed by the entry shows the natural chain unless it says otherwise.
# UniProt Q5RIA9: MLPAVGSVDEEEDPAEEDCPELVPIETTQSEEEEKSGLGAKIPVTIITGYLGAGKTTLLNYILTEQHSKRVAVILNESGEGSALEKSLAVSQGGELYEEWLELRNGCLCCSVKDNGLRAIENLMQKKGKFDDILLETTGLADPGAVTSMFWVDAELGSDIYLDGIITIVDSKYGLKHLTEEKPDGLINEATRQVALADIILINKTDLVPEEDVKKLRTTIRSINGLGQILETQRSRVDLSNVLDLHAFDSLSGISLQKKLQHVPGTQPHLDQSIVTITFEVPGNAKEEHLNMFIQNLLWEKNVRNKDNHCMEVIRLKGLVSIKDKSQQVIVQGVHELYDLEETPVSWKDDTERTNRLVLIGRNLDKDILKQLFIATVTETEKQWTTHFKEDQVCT
# UniProt Q8IWD4: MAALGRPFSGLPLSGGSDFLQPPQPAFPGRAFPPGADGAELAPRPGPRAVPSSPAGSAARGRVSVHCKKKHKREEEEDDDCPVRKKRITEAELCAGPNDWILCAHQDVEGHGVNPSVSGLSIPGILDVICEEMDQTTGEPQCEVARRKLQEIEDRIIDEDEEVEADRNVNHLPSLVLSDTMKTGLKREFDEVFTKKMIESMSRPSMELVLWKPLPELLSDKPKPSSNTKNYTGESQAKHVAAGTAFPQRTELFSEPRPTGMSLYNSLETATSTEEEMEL
# UniProt Q6NZI2: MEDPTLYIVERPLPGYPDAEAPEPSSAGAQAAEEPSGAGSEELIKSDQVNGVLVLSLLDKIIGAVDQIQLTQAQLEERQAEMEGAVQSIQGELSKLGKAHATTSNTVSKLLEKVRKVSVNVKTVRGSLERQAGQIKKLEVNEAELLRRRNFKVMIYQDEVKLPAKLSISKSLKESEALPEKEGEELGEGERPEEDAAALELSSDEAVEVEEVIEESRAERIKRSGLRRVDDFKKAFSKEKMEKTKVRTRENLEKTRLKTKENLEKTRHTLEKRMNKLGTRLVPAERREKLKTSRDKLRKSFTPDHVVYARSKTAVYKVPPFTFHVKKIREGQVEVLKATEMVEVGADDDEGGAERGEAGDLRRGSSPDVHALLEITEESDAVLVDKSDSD
# UniProt Q8ND76: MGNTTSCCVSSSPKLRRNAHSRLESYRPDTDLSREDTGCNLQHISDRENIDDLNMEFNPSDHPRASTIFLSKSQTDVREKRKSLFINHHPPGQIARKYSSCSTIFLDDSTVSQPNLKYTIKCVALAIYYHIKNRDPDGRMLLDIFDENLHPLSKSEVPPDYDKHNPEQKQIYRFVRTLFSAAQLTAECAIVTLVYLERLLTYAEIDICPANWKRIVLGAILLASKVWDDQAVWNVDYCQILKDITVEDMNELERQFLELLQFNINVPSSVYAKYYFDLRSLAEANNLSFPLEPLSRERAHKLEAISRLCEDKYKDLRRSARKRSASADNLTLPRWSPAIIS
# UniProt Q15834: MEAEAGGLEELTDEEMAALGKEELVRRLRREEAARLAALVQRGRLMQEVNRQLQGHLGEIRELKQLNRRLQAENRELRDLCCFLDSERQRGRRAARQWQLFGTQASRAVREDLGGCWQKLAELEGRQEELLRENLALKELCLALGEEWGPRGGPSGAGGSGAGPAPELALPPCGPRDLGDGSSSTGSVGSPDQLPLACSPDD
# UniProt Q4VC31: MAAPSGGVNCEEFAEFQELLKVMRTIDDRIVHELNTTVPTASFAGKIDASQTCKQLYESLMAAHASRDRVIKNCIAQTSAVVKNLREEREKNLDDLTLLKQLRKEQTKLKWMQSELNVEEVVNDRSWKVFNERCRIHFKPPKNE
# UniProt Q9NQ75: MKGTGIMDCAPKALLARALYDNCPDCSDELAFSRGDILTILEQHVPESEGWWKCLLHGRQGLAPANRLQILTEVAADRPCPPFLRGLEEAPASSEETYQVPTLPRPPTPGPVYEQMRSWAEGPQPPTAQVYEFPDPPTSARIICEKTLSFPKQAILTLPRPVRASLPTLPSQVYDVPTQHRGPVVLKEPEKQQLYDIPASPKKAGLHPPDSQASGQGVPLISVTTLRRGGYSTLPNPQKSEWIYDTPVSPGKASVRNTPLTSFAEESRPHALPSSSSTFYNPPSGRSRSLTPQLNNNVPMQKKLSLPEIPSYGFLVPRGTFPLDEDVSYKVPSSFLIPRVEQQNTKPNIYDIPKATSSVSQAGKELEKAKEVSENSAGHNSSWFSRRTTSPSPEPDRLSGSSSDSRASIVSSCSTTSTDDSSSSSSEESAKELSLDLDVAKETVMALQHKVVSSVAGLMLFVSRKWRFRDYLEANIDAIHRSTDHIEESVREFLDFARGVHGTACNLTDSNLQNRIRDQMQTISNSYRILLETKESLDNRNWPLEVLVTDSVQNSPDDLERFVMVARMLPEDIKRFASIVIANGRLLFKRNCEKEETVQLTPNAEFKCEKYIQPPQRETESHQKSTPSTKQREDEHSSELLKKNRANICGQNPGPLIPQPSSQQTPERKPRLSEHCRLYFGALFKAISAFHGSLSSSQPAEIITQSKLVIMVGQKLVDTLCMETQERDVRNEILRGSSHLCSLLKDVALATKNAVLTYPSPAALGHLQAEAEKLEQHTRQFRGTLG
# UniProt O60826, whole entry, looked up: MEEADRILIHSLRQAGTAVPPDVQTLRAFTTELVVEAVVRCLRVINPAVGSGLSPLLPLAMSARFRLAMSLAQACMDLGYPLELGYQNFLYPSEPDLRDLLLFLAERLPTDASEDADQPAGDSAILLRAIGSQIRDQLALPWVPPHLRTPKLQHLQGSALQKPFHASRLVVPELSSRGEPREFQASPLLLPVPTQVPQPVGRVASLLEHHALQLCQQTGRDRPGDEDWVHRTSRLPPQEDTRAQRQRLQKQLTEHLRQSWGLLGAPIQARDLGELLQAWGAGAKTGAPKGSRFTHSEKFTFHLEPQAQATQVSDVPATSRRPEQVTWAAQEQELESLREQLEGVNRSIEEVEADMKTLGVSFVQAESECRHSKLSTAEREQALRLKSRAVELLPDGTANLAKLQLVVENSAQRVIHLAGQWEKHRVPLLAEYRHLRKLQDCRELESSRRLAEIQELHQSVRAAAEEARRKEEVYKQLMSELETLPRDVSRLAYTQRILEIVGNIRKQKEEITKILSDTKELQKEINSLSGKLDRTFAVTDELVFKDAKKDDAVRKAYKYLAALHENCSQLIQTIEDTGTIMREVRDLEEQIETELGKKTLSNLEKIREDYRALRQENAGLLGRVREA
# UniProt Q96MW1: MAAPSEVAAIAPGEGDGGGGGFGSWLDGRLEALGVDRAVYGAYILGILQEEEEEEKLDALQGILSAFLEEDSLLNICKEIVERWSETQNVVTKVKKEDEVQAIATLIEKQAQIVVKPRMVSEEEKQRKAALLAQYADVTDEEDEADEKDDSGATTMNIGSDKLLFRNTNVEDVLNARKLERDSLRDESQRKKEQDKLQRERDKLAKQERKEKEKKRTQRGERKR
# UniProt Q9GZT6: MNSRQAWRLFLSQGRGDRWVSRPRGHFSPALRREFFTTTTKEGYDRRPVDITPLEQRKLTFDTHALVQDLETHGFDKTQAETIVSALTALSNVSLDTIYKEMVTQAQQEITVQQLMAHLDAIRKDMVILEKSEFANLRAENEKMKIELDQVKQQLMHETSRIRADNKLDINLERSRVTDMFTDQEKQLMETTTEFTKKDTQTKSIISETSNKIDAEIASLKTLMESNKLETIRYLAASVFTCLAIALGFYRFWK
# UniProt Q96F63: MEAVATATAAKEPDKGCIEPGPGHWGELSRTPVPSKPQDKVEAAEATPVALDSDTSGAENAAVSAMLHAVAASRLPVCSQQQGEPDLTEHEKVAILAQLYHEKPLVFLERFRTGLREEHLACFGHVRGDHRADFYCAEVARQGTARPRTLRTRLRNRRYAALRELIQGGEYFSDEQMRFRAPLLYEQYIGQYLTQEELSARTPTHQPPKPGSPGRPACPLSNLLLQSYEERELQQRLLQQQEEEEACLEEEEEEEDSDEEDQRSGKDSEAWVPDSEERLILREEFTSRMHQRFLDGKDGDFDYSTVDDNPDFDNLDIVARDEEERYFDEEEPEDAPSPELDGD
# UniProt O75081: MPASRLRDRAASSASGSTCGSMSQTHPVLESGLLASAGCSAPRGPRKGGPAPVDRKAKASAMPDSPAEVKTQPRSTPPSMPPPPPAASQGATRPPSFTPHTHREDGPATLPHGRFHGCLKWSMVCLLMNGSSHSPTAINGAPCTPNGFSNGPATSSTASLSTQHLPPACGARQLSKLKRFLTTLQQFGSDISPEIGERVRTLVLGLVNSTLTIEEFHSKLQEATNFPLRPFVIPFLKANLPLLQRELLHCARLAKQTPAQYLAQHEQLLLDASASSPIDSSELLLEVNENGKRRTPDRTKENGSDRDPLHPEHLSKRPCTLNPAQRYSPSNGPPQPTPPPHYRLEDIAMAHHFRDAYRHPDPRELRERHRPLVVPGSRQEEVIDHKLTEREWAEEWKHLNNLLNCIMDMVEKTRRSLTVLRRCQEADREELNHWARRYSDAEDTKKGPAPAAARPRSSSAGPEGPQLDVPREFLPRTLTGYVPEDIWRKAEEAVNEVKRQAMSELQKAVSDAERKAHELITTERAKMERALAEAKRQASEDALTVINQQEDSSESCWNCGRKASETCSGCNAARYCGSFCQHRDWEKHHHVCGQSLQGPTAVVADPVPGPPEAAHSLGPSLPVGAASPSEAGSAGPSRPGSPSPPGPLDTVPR
# UniProt P45973, whole entry, looked up: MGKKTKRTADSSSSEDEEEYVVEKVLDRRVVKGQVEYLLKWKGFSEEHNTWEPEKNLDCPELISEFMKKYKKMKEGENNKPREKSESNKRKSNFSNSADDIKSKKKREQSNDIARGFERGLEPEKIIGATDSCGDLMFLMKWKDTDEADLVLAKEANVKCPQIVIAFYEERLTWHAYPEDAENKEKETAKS
# UniProt O60563, whole entry, looked up: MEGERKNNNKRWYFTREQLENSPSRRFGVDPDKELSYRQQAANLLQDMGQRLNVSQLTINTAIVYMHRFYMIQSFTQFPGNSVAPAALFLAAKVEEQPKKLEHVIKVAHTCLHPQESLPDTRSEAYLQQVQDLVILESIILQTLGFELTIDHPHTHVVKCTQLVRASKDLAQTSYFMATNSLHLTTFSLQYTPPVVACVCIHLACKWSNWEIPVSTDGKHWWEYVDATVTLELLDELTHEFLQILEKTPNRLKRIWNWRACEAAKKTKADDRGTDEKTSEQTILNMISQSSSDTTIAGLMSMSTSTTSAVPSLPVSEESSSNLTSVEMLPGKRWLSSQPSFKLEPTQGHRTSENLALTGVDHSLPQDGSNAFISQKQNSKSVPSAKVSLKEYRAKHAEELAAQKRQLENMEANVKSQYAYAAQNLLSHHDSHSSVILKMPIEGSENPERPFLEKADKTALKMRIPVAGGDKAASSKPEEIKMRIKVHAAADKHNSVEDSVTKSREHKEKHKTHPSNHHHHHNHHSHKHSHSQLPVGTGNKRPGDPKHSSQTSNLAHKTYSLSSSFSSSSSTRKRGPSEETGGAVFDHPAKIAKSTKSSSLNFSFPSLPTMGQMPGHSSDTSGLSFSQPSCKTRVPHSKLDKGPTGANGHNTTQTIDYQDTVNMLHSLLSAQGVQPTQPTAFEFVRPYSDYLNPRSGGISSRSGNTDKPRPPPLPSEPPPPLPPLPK
# UniProt Q567U6, whole entry, looked up: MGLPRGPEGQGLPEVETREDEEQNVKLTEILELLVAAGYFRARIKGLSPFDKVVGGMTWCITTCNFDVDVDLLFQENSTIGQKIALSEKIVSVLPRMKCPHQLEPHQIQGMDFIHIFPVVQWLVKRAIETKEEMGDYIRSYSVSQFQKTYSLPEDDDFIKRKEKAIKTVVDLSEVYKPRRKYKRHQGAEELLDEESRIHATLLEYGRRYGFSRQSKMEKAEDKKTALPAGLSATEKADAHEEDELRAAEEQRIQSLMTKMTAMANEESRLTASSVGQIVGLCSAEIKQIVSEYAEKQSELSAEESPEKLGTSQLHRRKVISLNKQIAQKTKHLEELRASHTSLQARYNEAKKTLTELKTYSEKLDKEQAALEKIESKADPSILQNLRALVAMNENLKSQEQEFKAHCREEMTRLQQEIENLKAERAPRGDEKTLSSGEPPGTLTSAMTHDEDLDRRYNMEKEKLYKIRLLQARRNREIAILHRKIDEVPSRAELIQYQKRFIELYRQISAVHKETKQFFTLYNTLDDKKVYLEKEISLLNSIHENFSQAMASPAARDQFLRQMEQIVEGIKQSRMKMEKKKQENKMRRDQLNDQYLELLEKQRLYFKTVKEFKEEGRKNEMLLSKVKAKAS
# UniProt Q9H6F5: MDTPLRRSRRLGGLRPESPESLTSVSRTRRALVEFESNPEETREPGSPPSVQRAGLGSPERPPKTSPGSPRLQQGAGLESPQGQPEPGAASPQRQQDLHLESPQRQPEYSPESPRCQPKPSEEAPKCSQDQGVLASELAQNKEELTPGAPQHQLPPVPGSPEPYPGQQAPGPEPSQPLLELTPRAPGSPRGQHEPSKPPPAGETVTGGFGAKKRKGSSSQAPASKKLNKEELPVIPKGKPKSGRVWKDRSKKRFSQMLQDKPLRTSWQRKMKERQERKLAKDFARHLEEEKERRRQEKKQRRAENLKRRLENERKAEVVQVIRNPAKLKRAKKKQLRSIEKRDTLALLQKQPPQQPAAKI
# How the values were obtained:
# Assay in all cases: log2 fold change, soluble protein after heating vs DMSO (PISA); higher = thermal stabilisation; K562 lysate, 10 uM; active = over 0.2 and 3.5 SD of the protein, either way, in both replicates (recomputed)
# [1] = compound: NCC(=O)Nc1ccc(-n2nc(C(F)(F)F)cc2-c2ccc3c(ccc4ccccc43)c2)cc1
# In short: (§1)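 Values give the log-two fold change in thermal stability against solvent controls, from duplicates. Crude K562 extract at 1 mg/mL protein, made by dounce homogenisation in PBS pH 7.4 with 1 mM MgCl2, was treated with 10 μM compound for 30 min. After 3 min heating across 48°C-58°C, aliquots were pooled, adjusted to 0.5% NP-40 at 4°C and centrifuged at 21,000xg for 90 min. The supernatant was measured by TMTpro 16plex LC-MS/MS with channel sums equalised.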
# [2] = compound: O=C(CCCCCCC(=O)Nc1ccccc1)NO [vorinostat]
# In short: as §1
# [3] = compound: O=C(O)c1ccc2c(c1)nc(Nc1cccc(Cl)c1)c1ccncc12 [silmitasertib]
# In short: as §1
# [4] = compound: O=C1NC(=O)C(c2cnc3ccccn23)=C1c1cn2c3c(cc(F)cc13)CN(C(=O)N1CCCCC1)CC2
# In short: as §1
# [5] = compound: c1cn2cc(-c3ccc4cn[nH]c4c3)nc(Nc3ccc(N4CCOCC4)cc3)c2n1 [entospletinib]
# In short: as §1
Target,log2 fold change [1],log2 fold change [2],log2 fold change [3],log2 fold change [4],log2 fold change [5]
CBWD5 (UniProt Q5RIA9),inactive: 0.08,inactive: -0.053,inactive: -0.017,inactive: 0,inactive: -0.011
CCDC117 (UniProt Q8IWD4),inactive: 0.051,inactive: 0.162,inactive: -0.006,inactive: -0.044,inactive: -0.031
CAVIN1 (UniProt Q6NZI2),inactive: -0.012,inactive: 0.141,inactive: -0.013,inactive: 0.004,inactive: -0.028
CCT6A (UniProt P40227),inactive: 0.004,inactive: 0.049,inactive: -0.005,inactive: 0.012,inactive: 0.024
CCNY (UniProt Q8ND76),inactive: 0.076,active: -0.822,inactive: -0.018,inactive: -0.002,inactive: -0.074
CCSMST1 (UniProt Q4G0I0),inactive: 0.002,inactive: 0.093,inactive: 0.021,inactive: -0.136,inactive: -0.1
CCDC136 isoform 4 (UniProt Q96JN2),inactive: 0.016,inactive: -0.026,inactive: 0.044,inactive: -0.049,inactive: -0.001
CCDC85B (UniProt Q15834),inactive: -0.039,inactive: 0.088,inactive: 0.042,inactive: -0.077,inactive: -0.397
CD46 isoform 2 (UniProt P15529),inactive: 0.001,inactive: 0.011,inactive: -0.054,inactive: 0.038,inactive: 0.01
CCDC58 (UniProt Q4VC31),inactive: 0.016,inactive: 0.104,inactive: -0.021,inactive: 0.029,inactive: -0.012
CASP8 isoform 9 (UniProt Q14790),inactive: -0.014,inactive: -0.061,inactive: 0.038,inactive: 0.036,inactive: -0.021
CARD8 isoform 5 (UniProt Q9Y2G2),inactive: 0.032,inactive: 0.08,inactive: 0.039,inactive: 0.027,inactive: -0.059
CBLB (UniProt Q13191),inactive: -0.07,inactive: -0.016,inactive: 0.01,inactive: 0.032,inactive: -0.034
CASS4 (UniProt Q9NQ75),inactive: 0.142,inactive: 0,inactive: -0.111,inactive: 0.134,inactive: -0.071
CCM2 isoform 2 (UniProt Q9BSQ5),inactive: 0.031,inactive: -0.023,inactive: -0.009,inactive: -0.058,inactive: -0.06
CASKIN2 (UniProt Q8WXE0),inactive: 0.002,inactive: 0.122,inactive: -0.024,inactive: -0.045,inactive: 0.015
CCDC124 (UniProt Q96CT7),inactive: -0.018,inactive: 0.097,inactive: -0.007,inactive: 0.005,inactive: 0.022
CCDC22 (UniProt O60826),inactive: 0.056,active: -0.222,inactive: 0.022,inactive: 0.014,inactive: -0.021
CCDC6 (UniProt Q16204),inactive: -0.009,inactive: 0.113,inactive: -0.017,inactive: 0.03,inactive: 0.001
CCNA2 (UniProt P20248),inactive: 0.005,inactive: 0.075,inactive: -0.06,inactive: -0.026,inactive: -0.011
CCDC115 (UniProt Q96NT0),inactive: -0.095,inactive: 0.084,inactive: 0.031,inactive: -0.017,inactive: -0.106
CCT4 (UniProt P50991),inactive: 0.013,inactive: 0.021,inactive: 0.018,inactive: 0.008,inactive: 0.033
CD3EAP isoform 2 (UniProt O15446),inactive: 0.014,inactive: 0.027,inactive: -0.016,inactive: 0.001,inactive: -0.022
CCDC82 (UniProt Q8N4S0),inactive: -0.005,inactive: 0.067,inactive: 0.068,inactive: -0.022,inactive: 0.02
CCDC43 (UniProt Q96MW1),inactive: 0.022,inactive: 0.054,inactive: -0.05,inactive: -0.016,inactive: -0.023
CCDC32 isoform 2 (UniProt Q9BV29),inactive: 0.005,inactive: 0.058,inactive: -0.044,inactive: 0.009,inactive: -0.042

Target,log2 fold change [1],log2 fold change [2],log2 fold change [3],log2 fold change [4],log2 fold change [5]
CCDC90B (UniProt Q9GZT6),inactive: -0.058,inactive: 0.145,inactive: -0.022,inactive: -0.021,inactive: -0.22
CCDC97 (UniProt Q96F63),inactive: -0.04,inactive: -0.058,inactive: -0.009,inactive: 0.022,inactive: -0.085
CCDC91 (UniProt Q7Z6B0),inactive: -0.023,inactive: 0.041,inactive: -0.014,inactive: -0.041,inactive: -0.028
CBFA2T3 (UniProt O75081),inactive: -0.004,active: -0.4,inactive: 0.009,inactive: -0.019,inactive: -0.012
CCDC28A (UniProt Q8IWP9),inactive: 0.036,inactive: 0.151,inactive: -0.068,inactive: -0.009,inactive: -0.02
CCT3 (UniProt P49368),inactive: 0.013,inactive: 0.049,inactive: -0.006,inactive: 0.001,inactive: 0.039
CARNMT1 (UniProt Q8N4J0),inactive: 0.005,inactive: 0.027,inactive: 0.008,inactive: -0.028,inactive: -0.039
CBFB isoform 2 (UniProt Q13951),inactive: 0.024,inactive: 0.033,inactive: -0.022,inactive: -0.049,inactive: 0.019
CD59 isoform 2 (UniProt P13987),inactive: -0.001,inactive: 0.089,inactive: -0.043,inactive: 0.022,inactive: -0.088
CCT7 (UniProt Q99832),inactive: 0.015,inactive: 0.031,inactive: 0.022,inactive: 0.023,inactive: 0.062
CASP9 (UniProt P55211),inactive: 0.011,active: -0.342,inactive: -0.004,inactive: 0.019,inactive: -0.002
CCDC137 (UniProt Q6PK04),inactive: 0.014,inactive: 0.177,inactive: 0.019,inactive: 0.082,inactive: -0.025
CCDC25 (UniProt Q86WR0),inactive: 0.025,inactive: 0.025,inactive: -0.032,inactive: -0.011,inactive: 0.009
CCNL2 (UniProt Q96S94),inactive: -0.18,inactive: -0.18,inactive: -0.045,inactive: 0.052,inactive: -0.114
CBX5 (UniProt P45973),inactive: 0.033,inactive: -0.062,inactive: -0.005,inactive: -0.048,inactive: 0.014
CCNT1 (UniProt O60563),inactive: 0.062,inactive: -0.112,inactive: -0.035,inactive: 0,inactive: -0.025
CCDC93 (UniProt Q567U6),inactive: 0.024,inactive: -0.177,inactive: -0.003,inactive: -0.015,inactive: 0.026
CD151 (UniProt P48509),inactive: -0.04,inactive: 0.022,inactive: 0.015,inactive: -0.024,inactive: 0.027
CCDC86 (UniProt Q9H6F5),inactive: 0.042,inactive: 0.13,inactive: -0.029,inactive: 0,inactive: -0.048
CARS2 (UniProt Q9HA77),inactive: -0.026,inactive: 0.034,inactive: 0.015,inactive: 0.057,inactive: -0.024
CCNB1 (UniProt P14635),inactive: 0.05,inactive: -0.008,inactive: -0.013,inactive: -0.02,inactive: -0.009
CBFA2T2 isoform 4 (UniProt O43439),inactive: 0.026,inactive: -0.016,inactive: 0.016,inactive: 0.06,inactive: -0.035
CCDC134 (UniProt Q9H6E4),inactive: -0.037,inactive: 0.063,inactive: 0.001,inactive: -0.035,inactive: 0.019
CASK (UniProt O14936),inactive: -0.006,inactive: 0.064,inactive: -0.062,inactive: -0.095,inactive: -0.186
CBX3 (UniProt Q13185),inactive: 0.069,inactive: -0.096,inactive: 0.004,inactive: 0.057,inactive: 0.023
CCNH (UniProt P51946),inactive: 0.028,active: -0.43,inactive: 0.02,inactive: -0.07,inactive: 0.02

# Quoted from the entries so far for reference:
Target,log2 fold change [1],log2 fold change [2],log2 fold change [3],log2 fold change [4],log2 fold change [5]
CBFA2T3 (UniProt O75081),inactive: -0.004,active: -0.4,inactive: 0.009,inactive: -0.019,inactive: -0.012
CCDC28A (UniProt Q8IWP9),inactive: 0.036,inactive: 0.151,inactive: -0.068,inactive: -0.009,inactive: -0.02
CCT3 (UniProt P49368),inactive: 0.013,inactive: 0.049,inactive: -0.006,inactive: 0.001,inactive: 0.039
CARNMT1 (UniProt Q8N4J0),inactive: 0.005,inactive: 0.027,inactive: 0.008,inactive: -0.028,inactive: -0.039
CBFB isoform 2 (UniProt Q13951),inactive: 0.024,inactive: 0.033,inactive: -0.022,inactive: -0.049,inactive: 0.019
CD59 isoform 2 (UniProt P13987),inactive: -0.001,inactive: 0.089,inactive: -0.043,inactive: 0.022,inactive: -0.088
CCT7 (UniProt Q99832),inactive: 0.015,inactive: 0.031,inactive: 0.022,inactive: 0.023,inactive: 0.062
CASP9 (UniProt P55211),inactive: 0.011,active: -0.342,inactive: -0.004,inactive: 0.019,inactive: -0.002
CCDC137 (UniProt Q6PK04),inactive: 0.014,inactive: 0.177,inactive: 0.019,inactive: 0.082,inactive: -0.025
CCDC25 (UniProt Q86WR0),inactive: 0.025,inactive: 0.025,inactive: -0.032,inactive: -0.011,inactive: 0.009
CCNL2 (UniProt Q96S94),inactive: -0.18,inactive: -0.18,inactive: -0.045,inactive: 0.052,inactive: -0.114
CBX5 (UniProt P45973),inactive: 0.033,inactive: -0.062,inactive: -0.005,inactive: -0.048,inactive: 0.014
CCNT1 (UniProt O60563),inactive: 0.062,inactive: -0.112,inactive: -0.035,inactive: 0,inactive: -0.025
CCDC93 (UniProt Q567U6),inactive: 0.024,inactive: -0.177,inactive: -0.003,inactive: -0.015,inactive: 0.026

# Source: the supplement of paper PMC10849652
